# Test results taken from PubChem BioAssay AID1439 (NMMLSC, 2008).
# Protein sequences, listed by entry. Tags and fused reporters are not part of them.
# UniProt P09471, whole entry, looked up: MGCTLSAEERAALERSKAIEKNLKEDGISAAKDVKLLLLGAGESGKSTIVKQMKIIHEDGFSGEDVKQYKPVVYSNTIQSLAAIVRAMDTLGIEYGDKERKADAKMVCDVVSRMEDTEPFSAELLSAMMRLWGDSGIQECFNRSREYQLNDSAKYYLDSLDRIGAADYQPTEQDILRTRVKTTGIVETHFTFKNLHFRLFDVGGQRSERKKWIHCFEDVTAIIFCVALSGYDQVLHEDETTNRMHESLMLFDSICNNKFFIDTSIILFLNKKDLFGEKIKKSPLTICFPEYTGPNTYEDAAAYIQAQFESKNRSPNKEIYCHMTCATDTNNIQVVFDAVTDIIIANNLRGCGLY
# Screen size: about 220,000 compounds; about 770 (0.35%) were called active. The inconclusive results got no clear call from the source; some entries with a clear call stand among them for comparison. Rule as the data show it: active = binding response below about 49% or above about 150%; inconclusive = no clear call, values can overlap the other calls; inactive = in between.
# Target: Guanine nucleotide-binding protein G(o) subunit alpha (Homo sapiens) (UniProt P09471)
# Test: RGS7-Galphao binding modulators, primary screen, biochemical, multiplexed bead flow cytometry (AID 1439);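 also: fluorescent Galphao held in activated GDP-AlF4 state binding bead-coupled RGS7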
# Conditions: at 10 µM, actives lie on both sides
row,SMILES,binding response (% of control)
1,Cc1ccc(C)c(NC(=S)/C(=C(\[O-])c2ccc(Cl)s2)[n+]2ccccc2)c1,inconclusive: 88.1%
2,CC(C)c1nc2scc(-c3ccc(Cl)cc3)c2c(=O)n1N,inconclusive: 108%
3,COC(=O)c1scc(C)c1NC(=O)/C=C/C(=O)O,inconclusive: 74%
4,COCCNC(=O)C(=O)NCC1OCCN1S(=O)(=O)c1cccs1 (stereo not drawn),inconclusive: 92%
5,O=C(c1ccc(O)cc1)c1ccc(O)cc1O,inconclusive: 97.6%
6,CC1CCc2c(sc(/N=C/c3cccnc3)c2C(N)=O)C1 (stereo not drawn),inconclusive: 87.9%
7,CSc1ccc(NC(=O)Nc2ccccc2C(N)=O)cc1,inconclusive: -24.2%
8,NNC(=O)Cc1csc(-c2ccccc2)n1,inconclusive: 137%
9,COCCCN1CN(Cc2ccco2)CNC1=S,inconclusive: 239%
10,CSc1ncccc1C(=O)Nc1ccc2nc(C)sc2c1,inconclusive: 84.2%
11,CCc1ccc(NC(=O)c2ccccc2SC)cc1,inconclusive: 102%
12,CC(C)N(CC(N)=O)C(=O)c1sc2cc(F)ccc2c1Cl,inactive: 91.7%
13,O=C(Nc1cccc(F)c1)C1CCN(C(=O)c2ccc(Cl)cc2)CC1,inactive: 83%
14,O=C(c1ccc(Cl)cc1)N1CCn2c1nc1ccccc12,inconclusive: 81.3%
15,COC(=O)c1ccc(/C=N/Nc2nc(C)c(C)s2)cc1,inconclusive: 112%
16,C/C(=N\NC(=O)CCC(=O)O)c1c(-c2ccccc2)c2cc(Br)ccc2[nH]c1=O,inconclusive: 95.7%
17,Cc1ccc(NC(=O)Cn2ccc([N+](=O)[O-])n2)cc1C,inconclusive: 79%
18,Cc1ccc(S(=O)(=O)Nc2ccc(NC(=O)c3cccnc3)cc2)cc1,inactive: 101%
19,COCCNC(=S)Nc1ccc2[nH]c(=O)[nH]c2c1,inconclusive: 83.1%
20,Cc1cccc(OCCSc2nc(N)cc(N)n2)c1,inconclusive: 46.6%
21,Cc1cc(=O)[nH]c(N/N=C/c2ccc(OC(=O)c3cccnc3)cc2)n1,inactive: 97.7%
22,O=C(O)CCCCCNS(=O)(=O)c1c(Cl)cccc1Cl,inactive: 103%
23,ClCC1=Nc2cccc3cccc(c23)N1,inconclusive: 87.7%
24,CC(C)c1ccc(N=C(N)N=C(N)N)cc1,inconclusive: 102%

# Three successive compounds out of the list so far, for reference:
row,SMILES,binding response (% of control)
10,CSc1ncccc1C(=O)Nc1ccc2nc(C)sc2c1,inconclusive: 84.2%
11,CCc1ccc(NC(=O)c2ccccc2SC)cc1,inconclusive: 102%
12,CC(C)N(CC(N)=O)C(=O)c1sc2cc(F)ccc2c1Cl,inactive: 91.7%

# (cont.)

row,SMILES,binding response (% of control)
1,CCn1c2ccccc2c2cc(NC(=O)N3CCOCC3)ccc21,inactive: 104%
2,CCOC(=O)C1=C(Nc2ccc(Cl)cc2)OCC1=O,inconclusive: 86.7%
3,Cc1[nH]c2ccc(F)cc2c1CCN(Cc1cccnc1)C(=S)Nc1cccc(F)c1,inactive: 97.7%
4,CCOC(=O)c1sc(=S)n(-c2ccccc2)c1C,inconclusive: 98.3%
5,CNC(=O)c1c(NC(=O)c2cc(-c3cc(C)c(C)cc3O)n[nH]2)sc2c1CCCC2,inconclusive: 109%
6,O=c1oc(-c2ccc([N+](=O)[O-])cc2)nc2ccc(O)cc12,inconclusive: 107%
7,CCN(CC)S(=O)(=O)c1ccc(OC)c(NC(=O)c2cccc(C)c2[N+](=O)[O-])c1,inconclusive: 113%
8,Cc1cc(OCc2nc(-c3ccncc3)no2)cc(C)c1Cl,inactive: 93.9%
9,CCn1cc(C(=O)O)c(=O)c2cnc(N3CCN(C(=S)NC(=O)c4ccc(Cl)cc4)CC3)nc21,inconclusive: 93.6%
10,CC(=O)N1N=C(c2ccncc2)OC1(Cc1ccccc1)Cc1ccccc1,inconclusive: 81.8%
11,COc1ccc(C(=O)N/C(=C\c2cn(C)c3ccccc23)C(=O)OCC(C)C)cc1,inactive: 101%
12,N/C(=N\c1nc2ccccc2o1)NC(=O)/C=C/c1ccccc1,inconclusive: 111%
13,Cn1c(=O)c2c(-c3cccc(Br)c3)c(C#N)c(N)nc2n(C)c1=O,inconclusive: 93.1%
14,O=C(CCCCn1c(=O)c2ccccc2n(Cc2ccc(F)cc2)c1=O)NCc1ccco1,inactive: 101%
15,COc1ccc(CNCC(=O)Nc2ccccc2-n2cccc2)cc1,inconclusive: 111%
16,COc1ccc(CNS(=O)(=O)c2cccc(S(=O)(=O)N3CCOCC3)c2)cc1,inactive: 101%
17,O=C1CCC(=O)N1OCCOc1ccccc1,inconclusive: 108%
18,Cc1cc(C)nc(Sc2ncnc(N)c2[N+](=O)[O-])n1,inconclusive: 105%
19,CCOCC(=O)Nc1c(C)n(C)n(-c2ccccc2)c1=O,inactive: 106%
20,CC(C)CC1NC(=O)N(CC(=O)N2CCCc3ccccc32)C1=O (stereo not drawn),inconclusive: 99.6%
21,COc1ccccc1N1CN(Cc2ccccc2)CNC1=S,inconclusive: -26.4%
22,CC(NC(=O)c1ccccc1F)c1nnc(SCC(=O)N2CCN(c3ccccc3)CC2)n1C (stereo not drawn),inconclusive: 71.6%
23,CCOC(=O)C1=C(N)Oc2c(oc(CO)cc2=O)C1c1ccc(Cl)cc1 (stereo not drawn),inconclusive: 137%
24,CCOc1ccc2nc(N3CCCC(C(=O)NCC4CCCO4)C3)sc2c1 (stereo not drawn),inconclusive: 104%

row,SMILES,binding response (% of control)
1,O=C(CSc1nnc(SCc2ccc(Cl)cc2)s1)N/N=C/c1ccc(C(=O)O)cc1,inconclusive: 115%
2,CCOc1cc(/C=N/Nc2cc(C)nc(-n3nc(C)cc3C)n2)ccc1O,inconclusive: 105%
3,Cc1nc2nc(SCC(=O)c3ccccc3)[nH]c2cc1Br,inconclusive: 88.2%
4,Cc1ccc(Oc2nc3ccccn3c(=O)c2/C=C(\C#N)C(=O)NC2CCS(=O)(=O)C2)cc1 (stereo not drawn),inconclusive: 213%
5,Cc1cc(C(=O)COC(=O)c2ccccc2Br)c(C)n1CC1CCCO1 (stereo not drawn),inconclusive: 103%
6,O=[N+]([O-])c1cc(CN(CCO)CCO)ccc1O,inconclusive: 96.2%
7,CC(=O)NCCC(=O)Nc1nc(-c2ccccc2Cl)cs1,inconclusive: 122%
8,COc1cccc(-c2ccc3c(N)c(C(=O)NC4CC4)sc3n2)c1,inconclusive: 106%
9,COC(=O)CSc1nnc2cc(C)c3ccccc3n12,inconclusive: 99.3%
10,COc1cccc(C(=O)N(Cc2cccs2)C2CCS(=O)(=O)C2)c1 (stereo not drawn),inconclusive: -29.1%
11,Nn1c(SCc2ccccc2F)nnc1-c1ccncc1,inconclusive: 128%
12,O=C(c1ccc(Cl)c([N+](=O)[O-])c1)N(Cc1ccc(F)cc1)C1CCS(=O)(=O)C1 (stereo not drawn),inconclusive: 55.1%
13,CCOc1ccc(/C=N/NC(=O)c2nnn(-c3nonc3N)c2COc2ccc(F)cc2)cc1,inconclusive: 84.7%
14,COc1ccc(NS(=O)(=O)c2cc(NC(=O)Cn3cnc4c3c(=O)n(C)c(=O)n4C)ccc2C)cc1,inconclusive: 94.6%
15,Cc1c(NC(=O)c2ccco2)cccc1C(=O)NN1C(=O)c2ccccc2C1=O,inconclusive: 84.9%
16,Cc1nc2c(c(=O)c3ccccc3n2C)c(=O)n1-c1ccccc1,inconclusive: 122%
17,COc1ccc2c(c1)O/C(=C\c1sccc1C)C2=O,inactive: 98.9%
18,Cc1ccc(Cl)cc1NC(=O)COC(=O)C1CC1,inactive: 98.8%
19,COC(=O)CCC(=O)OC1(C)C(=O)C2=COC(c3ccc(OC)cc3)=CC2=C(Br)C1=O (stereo not drawn),inconclusive: 84.6%
20,COC(=O)Cc1ccc(Oc2ncc(C(F)(F)F)cc2Cl)cc1,inconclusive: 107%
21,O=C(O)CSc1nnc(CNc2ccc(F)cc2)n1-c1ccccc1,inconclusive: 99%
22,CN1CCN(CC(=O)Nc2nc3c(s2)CCCC3)CC1,inconclusive: 106%
23,CN(Cc1ccccc1F)c1ccc(S(=O)(=O)N2CCCC2)cn1,inconclusive: 103%
24,Cc1ccc(NC(=O)c2c(C)noc2-c2snnc2C)cc1,inconclusive: 78.9%

row,SMILES,binding response (% of control)
1,O=C(NCc1ccncc1)c1cc2ccccc2nc1Cl,inconclusive: 109%
2,COCCNC(=O)COc1ncnc2scc(-c3ccc(F)cc3)c12,inconclusive: 107%
3,COc1ccc(/C=N/NC(=O)Cc2n[nH]c(=O)[nH]c2=O)cc1,inconclusive: 108%
4,Oc1cc(OCc2ccccc2)ccc1-c1[nH]ncc1-c1ccccc1,inconclusive: 63.2%
5,O=C(Nc1ccc2c(c1)OCO2)N1CCN(c2ccccc2)CC1,inconclusive: 112%
6,CCN(C(=O)CSc1nnnn1-c1cc(C)ccc1OC)C1CCS(=O)(=O)C1 (stereo not drawn),inactive: 101%
7,N=C(N)SCc1ncccc1O,inconclusive: 106%
8,Nc1ccc(C(=O)Oc2ccc([N+](=O)[O-])cc2)c(O)c1,inconclusive: 93.3%
9,CCc1cc2c(=O)c(-c3ccc(F)cc3)c(C)oc2cc1OCC(=O)O,inconclusive: 100%
10,CSc1ccc(CCNC(=O)c2cc(C)nn2-c2ccccc2)cc1,inconclusive: 105%
11,COc1ccc(C(=O)/C=C/c2cc(C(=O)O)cc3c2OCOC3)c(O)c1,inconclusive: 106%
12,CC(=O)Oc1ccc(C(=O)[C@H]2[C@H]3C(=O)N(c4ccc(C)cc4C)C(=O)[C@H]3[C@@H]3C=CC=NN32)cc1,inconclusive: 61.1%
13,COc1c(O)cccc1/C=N/NC(=O)Cn1ccnc1C,inconclusive: 249%
14,Cc1ccc(NC(=O)C(=O)NCCN2CCN(C(=S)Nc3ccccc3)CC2)cc1,inactive: 106%
15,Cc1ccc2[nH]c3c(c2c1)SC(C)(C)CC3=O,inconclusive: 99.6%
16,NC1=NC[C@H](Cc2ccccc2)N1CCc1cccc(F)c1,inconclusive: 104%
17,O=c1oc2cc(O)ccc2cc1-c1nc2c(s1)CCc1ccccc1-2,inactive: 97.2%
18,O=C(CSC1=NCCS1)N1CCN(c2ccccc2)CC1,inactive: 94.2%
19,O=S1(=O)c2ccccc2C(CCO)N1Cc1ccccc1 (stereo not drawn),inconclusive: 74.2%
20,Cn1c(=O)c2c(ncn2CCNC2=NCCCCC2)n(C)c1=O,inconclusive: 115%
21,CC(C)(C)n1ncc2c(=O)n(CC(=O)NCc3ccccc3)cnc21,inactive: 102%

# Given with tabs: part of the list above.
row	SMILES	binding response (% of control)
20	CC(C)CC1NC(=O)N(CC(=O)N2CCCc3ccccc32)C1=O (stereo not drawn)	inconclusive: 99.6%
20	COC(=O)Cc1ccc(Oc2ncc(C(F)(F)F)cc2Cl)cc1	inconclusive: 107%
7	N=C(N)SCc1ncccc1O	inconclusive: 106%
